Reference: the supplement of paper PMC6411743
± gives the standard deviation of the averaged measurements. This is a selection; strong and weak results do not stand in their true shares.

Tests used:
Assay in all cases: NP40-soluble protein abundance relative to vehicle (solubility fold change) (ratio); higher = more soluble protein in presence of ATP
[1] = target: T1, ARL8A (UniProt Q96BM9)
T1 sequence (whole entry): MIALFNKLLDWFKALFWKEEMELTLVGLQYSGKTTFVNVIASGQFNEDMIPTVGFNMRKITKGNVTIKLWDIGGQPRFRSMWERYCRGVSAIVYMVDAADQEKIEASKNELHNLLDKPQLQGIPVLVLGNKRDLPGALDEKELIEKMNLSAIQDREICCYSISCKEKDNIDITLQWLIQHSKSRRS
In short: (§1)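 In three independent experiments, Jurkat crude lysate made by Dounce homogenisation was treated for 10 min at room temperature and then 3 min at 37 °C with eight concentrations ranging from 0.1 to 10 mM. It was then solubilised with 0.8% NP40 plus benzonase for 60 min at 4 °C and ultracentrifuged. The supernatant was TMT-labelled for LC-MS/MS, and each value is the fold change against the detergent-processed vehicle for the same replicate, using vsn-normalised intensities.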

[2] = target: T2, ATXN7L3B (UniProt Q96GX2)
T2 sequence (whole entry): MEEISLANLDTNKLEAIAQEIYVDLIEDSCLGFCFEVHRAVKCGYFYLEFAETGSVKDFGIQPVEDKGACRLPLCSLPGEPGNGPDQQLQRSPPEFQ
In short: as §1

[3] = target: T3, C8orf37 (UniProt Q96NL8)
T3 sequence (whole entry): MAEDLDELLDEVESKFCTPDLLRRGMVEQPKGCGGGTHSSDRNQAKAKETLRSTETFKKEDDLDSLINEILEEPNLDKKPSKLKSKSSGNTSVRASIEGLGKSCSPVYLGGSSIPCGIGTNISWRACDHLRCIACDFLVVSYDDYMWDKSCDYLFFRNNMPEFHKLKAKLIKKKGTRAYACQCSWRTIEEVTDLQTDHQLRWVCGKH
In short: as §1

[4] = target: T4, DDRGK1 (UniProt Q96HY6)
T4 sequence (whole entry): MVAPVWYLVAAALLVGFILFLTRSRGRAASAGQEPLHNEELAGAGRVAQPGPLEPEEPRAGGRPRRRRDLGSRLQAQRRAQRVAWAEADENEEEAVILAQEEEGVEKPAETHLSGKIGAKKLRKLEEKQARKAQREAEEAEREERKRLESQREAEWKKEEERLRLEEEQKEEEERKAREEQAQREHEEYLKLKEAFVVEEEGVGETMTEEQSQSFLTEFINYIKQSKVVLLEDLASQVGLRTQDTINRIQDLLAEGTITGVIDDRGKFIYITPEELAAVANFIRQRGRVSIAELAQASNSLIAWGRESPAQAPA
In short: as §1

[5] = target: T5, DNAJC1 (UniProt Q96KC8)
T5 sequence (whole entry): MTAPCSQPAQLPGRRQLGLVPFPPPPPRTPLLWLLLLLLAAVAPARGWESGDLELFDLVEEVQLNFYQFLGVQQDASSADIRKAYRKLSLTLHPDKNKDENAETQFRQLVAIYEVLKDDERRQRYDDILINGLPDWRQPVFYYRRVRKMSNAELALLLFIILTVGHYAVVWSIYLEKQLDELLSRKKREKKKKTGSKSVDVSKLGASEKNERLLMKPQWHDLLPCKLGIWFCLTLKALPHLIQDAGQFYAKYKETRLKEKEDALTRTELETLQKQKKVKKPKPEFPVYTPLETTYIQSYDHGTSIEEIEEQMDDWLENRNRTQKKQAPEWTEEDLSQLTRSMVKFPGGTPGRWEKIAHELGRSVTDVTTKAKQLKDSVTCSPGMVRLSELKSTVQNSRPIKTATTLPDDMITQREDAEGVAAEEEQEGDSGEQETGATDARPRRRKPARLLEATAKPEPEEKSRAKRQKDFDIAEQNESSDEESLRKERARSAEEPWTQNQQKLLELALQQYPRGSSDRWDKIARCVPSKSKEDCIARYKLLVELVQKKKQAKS
In short: as §1

[6] = target: T6, ISOC1 (UniProt Q96CN7)
T6 sequence (whole entry): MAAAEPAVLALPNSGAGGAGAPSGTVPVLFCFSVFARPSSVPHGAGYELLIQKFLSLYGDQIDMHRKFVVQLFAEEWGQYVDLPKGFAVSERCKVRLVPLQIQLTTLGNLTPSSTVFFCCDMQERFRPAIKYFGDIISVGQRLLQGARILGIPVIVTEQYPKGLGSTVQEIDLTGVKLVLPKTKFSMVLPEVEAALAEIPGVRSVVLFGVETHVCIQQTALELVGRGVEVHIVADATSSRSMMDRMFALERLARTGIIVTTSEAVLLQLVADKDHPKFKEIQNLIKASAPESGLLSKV
In short: as §1

[7] = target: T7, MRRF (UniProt Q96E11)
T7 sequence (whole entry): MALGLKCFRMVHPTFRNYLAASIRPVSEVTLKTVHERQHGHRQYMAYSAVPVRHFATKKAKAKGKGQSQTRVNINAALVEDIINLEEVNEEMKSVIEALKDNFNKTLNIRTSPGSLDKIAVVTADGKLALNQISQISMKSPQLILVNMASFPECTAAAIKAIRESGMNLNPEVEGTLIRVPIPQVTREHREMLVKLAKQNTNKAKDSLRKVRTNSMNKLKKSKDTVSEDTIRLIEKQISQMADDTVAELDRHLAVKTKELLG
In short: as §1

[8] = target: T8, NACC1 (UniProt Q96RE7)
T8 sequence (whole entry): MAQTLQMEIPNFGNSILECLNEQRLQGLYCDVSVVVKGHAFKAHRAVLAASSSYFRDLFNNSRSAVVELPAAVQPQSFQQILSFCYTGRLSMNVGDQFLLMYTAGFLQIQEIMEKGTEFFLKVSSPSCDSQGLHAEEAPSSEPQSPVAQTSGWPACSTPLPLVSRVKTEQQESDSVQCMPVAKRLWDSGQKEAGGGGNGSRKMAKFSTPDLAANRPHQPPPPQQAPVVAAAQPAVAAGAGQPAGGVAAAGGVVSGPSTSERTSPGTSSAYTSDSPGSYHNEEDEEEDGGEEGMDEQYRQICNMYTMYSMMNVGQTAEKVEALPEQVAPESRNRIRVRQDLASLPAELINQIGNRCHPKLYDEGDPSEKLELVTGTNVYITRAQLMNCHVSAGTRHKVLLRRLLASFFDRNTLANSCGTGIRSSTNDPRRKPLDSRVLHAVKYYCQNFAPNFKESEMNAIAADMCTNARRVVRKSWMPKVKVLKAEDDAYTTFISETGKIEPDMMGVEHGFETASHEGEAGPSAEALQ
In short: as §1

[9] = target: T9, RBM17 (UniProt Q96I25)
T9 sequence (whole entry): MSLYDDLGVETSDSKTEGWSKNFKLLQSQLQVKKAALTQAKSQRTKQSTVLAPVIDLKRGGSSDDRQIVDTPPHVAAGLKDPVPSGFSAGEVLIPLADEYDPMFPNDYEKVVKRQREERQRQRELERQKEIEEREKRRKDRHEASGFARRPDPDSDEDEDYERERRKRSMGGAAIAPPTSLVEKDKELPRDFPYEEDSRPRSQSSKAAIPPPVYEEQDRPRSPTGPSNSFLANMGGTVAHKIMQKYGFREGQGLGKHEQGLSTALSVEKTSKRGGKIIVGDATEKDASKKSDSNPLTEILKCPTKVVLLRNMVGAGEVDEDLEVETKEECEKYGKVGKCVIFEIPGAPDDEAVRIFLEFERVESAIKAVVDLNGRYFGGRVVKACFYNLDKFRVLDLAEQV
In short: as §1

[10] = target: T10, RUFY1 (UniProt Q96T51)
T10 sequence (whole entry): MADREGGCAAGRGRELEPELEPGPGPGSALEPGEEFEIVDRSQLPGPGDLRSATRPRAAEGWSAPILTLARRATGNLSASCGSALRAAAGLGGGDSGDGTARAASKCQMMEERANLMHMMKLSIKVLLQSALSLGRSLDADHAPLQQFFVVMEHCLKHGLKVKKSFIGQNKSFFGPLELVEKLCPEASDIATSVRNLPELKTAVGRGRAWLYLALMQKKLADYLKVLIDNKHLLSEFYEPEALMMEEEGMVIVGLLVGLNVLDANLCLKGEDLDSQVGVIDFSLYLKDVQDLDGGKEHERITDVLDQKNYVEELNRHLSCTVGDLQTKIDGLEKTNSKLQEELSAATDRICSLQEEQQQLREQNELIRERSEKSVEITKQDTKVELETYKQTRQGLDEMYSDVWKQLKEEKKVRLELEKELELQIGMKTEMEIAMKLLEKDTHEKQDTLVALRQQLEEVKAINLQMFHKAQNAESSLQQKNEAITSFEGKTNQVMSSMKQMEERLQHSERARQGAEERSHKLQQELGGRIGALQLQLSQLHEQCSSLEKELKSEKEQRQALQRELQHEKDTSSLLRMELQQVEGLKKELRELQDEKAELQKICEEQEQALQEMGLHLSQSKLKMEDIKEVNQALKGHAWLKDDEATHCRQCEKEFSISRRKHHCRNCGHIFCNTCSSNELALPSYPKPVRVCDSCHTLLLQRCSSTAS
In short: as §1

Nc1ncnc2c1ncn2[C@@H]1O[C@H](COP(=O)(O)OP(=O)(O)OP(=O)(O)O)[C@@H](O)[C@H]1O [adenosine triphosphate]
NP40-soluble protein abundance ([1]; concentration: 1mM): 1.01 ± 0.16
NP40-soluble protein abundance ([1]; concentration: 2mM): 1.01 ± 0.14
NP40-soluble protein abundance ([1]; concentration: 4mM): 0.989 ± 0.11
NP40-soluble protein abundance ([1]; concentration: 6mM): 0.939 ± 0.14
NP40-soluble protein abundance ([1]; concentration: 8mM): 0.997 ± 0.081
NP40-soluble protein abundance ([1]; concentration: 10mM): 0.984 ± 0.082
NP40-soluble protein abundance ([2]; concentration: 1mM): 0.911 ± 0.18
NP40-soluble protein abundance ([2]; concentration: 2mM): 0.907 ± 0.13
NP40-soluble protein abundance ([2]; concentration: 4mM): 0.889 ± 0.14
NP40-soluble protein abundance ([2]; concentration: 6mM): 0.9 ± 0.21
NP40-soluble protein abundance ([2]; concentration: 8mM): 0.902 ± 0.17
NP40-soluble protein abundance ([2]; concentration: 10mM): 0.945 ± 0.15
NP40-soluble protein abundance ([3]; concentration: 1mM): 0.898 ± 0.068
NP40-soluble protein abundance ([3]; concentration: 2mM): 0.9994 ± 0.0078
NP40-soluble protein abundance ([3]; concentration: 4mM): 0.839 ± 0.047
NP40-soluble protein abundance ([3]; concentration: 6mM): 0.935 ± 0.081
NP40-soluble protein abundance ([3]; concentration: 8mM): 0.8368 ± 0.0069
NP40-soluble protein abundance ([3]; concentration: 10mM): 0.88 ± 0.039
NP40-soluble protein abundance ([4]; concentration: 1mM): 1.01 ± 0.13
NP40-soluble protein abundance ([4]; concentration: 2mM): 1.06 ± 0.088
NP40-soluble protein abundance ([4]; concentration: 4mM): 1.09 ± 0.11
NP40-soluble protein abundance ([4]; concentration: 6mM): 1.15 ± 0.1
NP40-soluble protein abundance ([4]; concentration: 8mM): 1.12 ± 0.098
NP40-soluble protein abundance ([4]; concentration: 10mM): 1.13 ± 0.071
NP40-soluble protein abundance ([5]; concentration: 1mM): 0.993 ± 0.021
NP40-soluble protein abundance ([5]; concentration: 2mM): 1 ± 0.03
NP40-soluble protein abundance ([5]; concentration: 4mM): 0.998 ± 0.07
NP40-soluble protein abundance ([5]; concentration: 6mM): 1.02 ± 0.049
NP40-soluble protein abundance ([5]; concentration: 8mM): 0.945 ± 0.029
NP40-soluble protein abundance ([5]; concentration: 10mM): 1 ± 0.021
NP40-soluble protein abundance ([6]; concentration: 1mM): 0.976 ± 0.09
NP40-soluble protein abundance ([6]; concentration: 2mM): 0.932 ± 0.027
NP40-soluble protein abundance ([6]; concentration: 4mM): 0.943 ± 0.057
NP40-soluble protein abundance ([6]; concentration: 6mM): 0.907 ± 0.089
NP40-soluble protein abundance ([6]; concentration: 8mM): 0.936 ± 0.031
NP40-soluble protein abundance ([6]; concentration: 10mM): 0.935 ± 0.036
NP40-soluble protein abundance ([7]; concentration: 1mM): 0.97 ± 0.06
NP40-soluble protein abundance ([7]; concentration: 2mM): 0.935 ± 0.06
NP40-soluble protein abundance ([7]; concentration: 4mM): 0.929 ± 0.058
NP40-soluble protein abundance ([7]; concentration: 6mM): 0.93 ± 0.036
NP40-soluble protein abundance ([7]; concentration: 8mM): 0.906 ± 0.011
NP40-soluble protein abundance ([7]; concentration: 10mM): 0.851 ± 0.11
NP40-soluble protein abundance ([8]; concentration: 1mM): 0.947 ± 0.058
NP40-soluble protein abundance ([8]; concentration: 2mM): 0.956 ± 0.045
NP40-soluble protein abundance ([8]; concentration: 4mM): 0.932 ± 0.042
NP40-soluble protein abundance ([8]; concentration: 6mM): 0.943 ± 0.074
NP40-soluble protein abundance ([8]; concentration: 8mM): 0.911 ± 0.021
NP40-soluble protein abundance ([8]; concentration: 10mM): 0.914 ± 0.025
NP40-soluble protein abundance ([9]; concentration: 1mM): 1.15 ± 0.019
NP40-soluble protein abundance ([9]; concentration: 2mM): 1.15 ± 0.039
NP40-soluble protein abundance ([9]; concentration: 4mM): 1.18 ± 0.03
NP40-soluble protein abundance ([9]; concentration: 6mM): 1.24 ± 0.043
NP40-soluble protein abundance ([9]; concentration: 8mM): 1.28 ± 0.038
NP40-soluble protein abundance ([9]; concentration: 10mM): 1.3 ± 0.042
NP40-soluble protein abundance ([10]; concentration: 1mM): 0.9689 ± 0.0045
NP40-soluble protein abundance ([10]; concentration: 2mM): 0.97 ± 0.019
NP40-soluble protein abundance ([10]; concentration: 4mM): 0.9508 ± 0.0069
NP40-soluble protein abundance ([10]; concentration: 6mM): 0.977 ± 0.029
NP40-soluble protein abundance ([10]; concentration: 8mM): 0.9531 ± 0.0057
NP40-soluble protein abundance ([10]; concentration: 10mM): 0.943 ± 0.024
